{"source": "PubChem BioAssay AID1259298 (Sanger Institute, 2017)", "test": "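Kinase knock-downs that cut colorectal cancer cell viability or act with targeted drugs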 (primary screen)", "cells": "HT55 human colorectal cancer cell line", "knock-down reagent": "siRNA pool against human genes", "conditions": "anchor drug BYL719 1 µM, cetuximab 5 µg/ml or trametinib 10 nM, or DMSO vehicle alone", "measured": "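Replicate-averaged viability versus wells of non-targeting pool; knock-down-only robust z-score; per-drug synergy score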", "scale": "robust z-score, knock-down alone: higher = more cells remaining; low means essential gene; viability vs control pool, no drug: higher = more viable cells", "call rule": "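a gene counts as essential if its knock-down-alone robust z-score falls under -3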", "meaning of the calls": "active = essential (knock-down alone); inactive = no change alone", "note": "Here is one part, drawn at random, of 794 reagents. Of all reagents, 20 (2.5%) got an active call. 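Calls rest only on the knock-down-alone score; drug synergy scores played no part in them.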 No viability above 1 is reported: the scale is capped. Further read-outs or replicates are left out here. Not stated in the record: the amount of reagent, the time to read-out."}
{"gene knocked down": "AKT3", "robust z-score, knock-down alone": -4.25, "viability vs control pool, no drug (fraction)": 0.622, "Outcome": "active"}
{"gene knocked down": "TLK1", "robust z-score, knock-down alone": -1.84, "viability vs control pool, no drug (fraction)": 0.81, "Outcome": "inactive"}
{"gene knocked down": "TEC", "robust z-score, knock-down alone": 0.58, "viability vs control pool, no drug (fraction)": 1, "Outcome": "inactive"}
{"gene knocked down": "BUB1", "robust z-score, knock-down alone": 0.0481, "viability vs control pool, no drug (fraction)": 0.958, "Outcome": "inactive"}
{"gene knocked down": "SBK1", "robust z-score, knock-down alone": 0.58, "viability vs control pool, no drug (fraction)": 1, "Outcome": "inactive"}
{"gene knocked down": "MGA", "robust z-score, knock-down alone": -1.56, "viability vs control pool, no drug (fraction)": 0.832, "Outcome": "inactive"}
{"gene knocked down": "IRAK2", "robust z-score, knock-down alone": 0.58, "viability vs control pool, no drug (fraction)": 1, "Outcome": "inactive"}
{"gene knocked down": "CAMKK2", "robust z-score, knock-down alone": 0.58, "viability vs control pool, no drug (fraction)": 1, "Outcome": "inactive"}
{"gene knocked down": "CALM1", "robust z-score, knock-down alone": -0.257, "viability vs control pool, no drug (fraction)": 0.935, "Outcome": "inactive"}
{"gene knocked down": "MPP1", "robust z-score, knock-down alone": 0.58, "viability vs control pool, no drug (fraction)": 1, "Outcome": "inactive"}
{"gene knocked down": "CASK", "robust z-score, knock-down alone": 0.58, "viability vs control pool, no drug (fraction)": 1, "Outcome": "inactive"}
{"gene knocked down": "GSK3A", "robust z-score, knock-down alone": -0.0837, "viability vs control pool, no drug (fraction)": 0.948, "Outcome": "inactive"}
{"gene knocked down": "INSRR", "robust z-score, knock-down alone": -1.87, "viability vs control pool, no drug (fraction)": 0.808, "Outcome": "inactive"}
{"gene knocked down": "MPP2", "robust z-score, knock-down alone": 0.58, "viability vs control pool, no drug (fraction)": 1, "Outcome": "inactive"}
{"gene knocked down": "MPP3", "robust z-score, knock-down alone": -0.37, "viability vs control pool, no drug (fraction)": 0.926, "Outcome": "inactive"}
{"gene knocked down": "PI4K2A", "robust z-score, knock-down alone": 0.58, "viability vs control pool, no drug (fraction)": 1, "Outcome": "inactive"}
{"gene knocked down": "PFKFB4", "robust z-score, knock-down alone": 0.58, "viability vs control pool, no drug (fraction)": 1, "Outcome": "inactive"}
{"gene knocked down": "PFKFB1", "robust z-score, knock-down alone": 0.58, "viability vs control pool, no drug (fraction)": 1, "Outcome": "inactive"}
{"gene knocked down": "CTNNB1", "robust z-score, knock-down alone": -1.4, "viability vs control pool, no drug (fraction)": 0.845, "Outcome": "inactive"}
{"gene knocked down": "SYK", "robust z-score, knock-down alone": -1.1, "viability vs control pool, no drug (fraction)": 0.869, "Outcome": "inactive"}
{"gene knocked down": "NUAK2", "robust z-score, knock-down alone": -1.15, "viability vs control pool, no drug (fraction)": 0.865, "Outcome": "inactive"}
{"gene knocked down": "SMAD4", "robust z-score, knock-down alone": 0.333, "viability vs control pool, no drug (fraction)": 0.981, "Outcome": "inactive"}
{"gene knocked down": "CEP290", "robust z-score, knock-down alone": 0.58, "viability vs control pool, no drug (fraction)": 1, "Outcome": "inactive"}
{"gene knocked down": "SYNCRIP", "robust z-score, knock-down alone": -1.61, "viability vs control pool, no drug (fraction)": 0.829, "Outcome": "inactive"}
{"gene knocked down": "PDGFRA", "robust z-score, knock-down alone": 0.58, "viability vs control pool, no drug (fraction)": 1, "Outcome": "inactive"}
{"gene knocked down": "PANK4", "robust z-score, knock-down alone": -0.583, "viability vs control pool, no drug (fraction)": 0.909, "Outcome": "inactive"}
{"gene knocked down": "NEK4", "robust z-score, knock-down alone": -3.27, "viability vs control pool, no drug (fraction)": 0.699, "Outcome": "active"}
{"gene knocked down": "MAPK12", "robust z-score, knock-down alone": 0.58, "viability vs control pool, no drug (fraction)": 1, "Outcome": "inactive"}
{"gene knocked down": "PANK2", "robust z-score, knock-down alone": -0.753, "viability vs control pool, no drug (fraction)": 0.896, "Outcome": "inactive"}
{"gene knocked down": "DSTYK", "robust z-score, knock-down alone": 0.58, "viability vs control pool, no drug (fraction)": 1, "Outcome": "inactive"}
{"gene knocked down": "PRKACG", "robust z-score, knock-down alone": 0.58, "viability vs control pool, no drug (fraction)": 1, "Outcome": "inactive"}
{"gene knocked down": "NIM1K", "robust z-score, knock-down alone": 0.58, "viability vs control pool, no drug (fraction)": 1, "Outcome": "inactive"}
{"gene knocked down": "NUAK1", "robust z-score, knock-down alone": -0.411, "viability vs control pool, no drug (fraction)": 0.923, "Outcome": "inactive"}
{"gene knocked down": "MAP4K4", "robust z-score, knock-down alone": 0.58, "viability vs control pool, no drug (fraction)": 1, "Outcome": "inactive"}
{"gene knocked down": "PHKA1", "robust z-score, knock-down alone": 0.58, "viability vs control pool, no drug (fraction)": 1, "Outcome": "inactive"}
{"gene knocked down": "MED24", "robust z-score, knock-down alone": 0.58, "viability vs control pool, no drug (fraction)": 1, "Outcome": "inactive"}
